# Assay results as given in the supplement of paper PMC12819154, “High-throughput peptide-centric local stability assay extends protein–ligand identification to membrane proteins, tissues and bacteria” (Nature Structural & Molecular Biology, 2025).
# Amino acid sequences for entries named in this document (tags omitted). A change or cut given only in a name is not applied to a line headed by its entry.
# UniProt P97315: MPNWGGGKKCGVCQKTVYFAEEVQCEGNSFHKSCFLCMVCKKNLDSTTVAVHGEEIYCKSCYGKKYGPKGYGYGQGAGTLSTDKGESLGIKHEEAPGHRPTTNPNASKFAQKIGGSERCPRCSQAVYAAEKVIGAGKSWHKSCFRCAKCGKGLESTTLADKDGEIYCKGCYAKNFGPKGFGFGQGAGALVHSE
# UniProt P97762: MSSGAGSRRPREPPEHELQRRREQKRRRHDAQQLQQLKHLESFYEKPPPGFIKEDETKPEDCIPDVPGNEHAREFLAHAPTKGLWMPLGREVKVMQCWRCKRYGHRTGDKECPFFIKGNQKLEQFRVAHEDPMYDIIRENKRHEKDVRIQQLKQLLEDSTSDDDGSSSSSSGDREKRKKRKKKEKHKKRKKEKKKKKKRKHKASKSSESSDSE
# UniProt P63154: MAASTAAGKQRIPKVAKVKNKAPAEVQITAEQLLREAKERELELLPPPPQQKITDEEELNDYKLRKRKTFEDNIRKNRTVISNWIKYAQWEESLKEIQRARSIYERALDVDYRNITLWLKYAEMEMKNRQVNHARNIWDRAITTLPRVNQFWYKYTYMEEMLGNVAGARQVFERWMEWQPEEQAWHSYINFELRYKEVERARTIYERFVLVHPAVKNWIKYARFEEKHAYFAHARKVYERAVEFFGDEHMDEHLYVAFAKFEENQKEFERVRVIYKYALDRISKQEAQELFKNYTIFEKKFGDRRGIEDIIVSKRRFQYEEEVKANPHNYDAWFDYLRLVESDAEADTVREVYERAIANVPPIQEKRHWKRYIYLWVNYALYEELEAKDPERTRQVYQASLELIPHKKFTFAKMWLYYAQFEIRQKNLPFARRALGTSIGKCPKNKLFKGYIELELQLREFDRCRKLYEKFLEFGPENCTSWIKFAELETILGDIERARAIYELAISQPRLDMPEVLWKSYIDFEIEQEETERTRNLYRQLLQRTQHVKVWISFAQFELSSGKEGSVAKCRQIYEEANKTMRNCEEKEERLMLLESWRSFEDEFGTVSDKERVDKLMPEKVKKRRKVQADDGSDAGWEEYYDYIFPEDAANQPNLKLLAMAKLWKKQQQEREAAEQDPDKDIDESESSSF
# UniProt Q02357: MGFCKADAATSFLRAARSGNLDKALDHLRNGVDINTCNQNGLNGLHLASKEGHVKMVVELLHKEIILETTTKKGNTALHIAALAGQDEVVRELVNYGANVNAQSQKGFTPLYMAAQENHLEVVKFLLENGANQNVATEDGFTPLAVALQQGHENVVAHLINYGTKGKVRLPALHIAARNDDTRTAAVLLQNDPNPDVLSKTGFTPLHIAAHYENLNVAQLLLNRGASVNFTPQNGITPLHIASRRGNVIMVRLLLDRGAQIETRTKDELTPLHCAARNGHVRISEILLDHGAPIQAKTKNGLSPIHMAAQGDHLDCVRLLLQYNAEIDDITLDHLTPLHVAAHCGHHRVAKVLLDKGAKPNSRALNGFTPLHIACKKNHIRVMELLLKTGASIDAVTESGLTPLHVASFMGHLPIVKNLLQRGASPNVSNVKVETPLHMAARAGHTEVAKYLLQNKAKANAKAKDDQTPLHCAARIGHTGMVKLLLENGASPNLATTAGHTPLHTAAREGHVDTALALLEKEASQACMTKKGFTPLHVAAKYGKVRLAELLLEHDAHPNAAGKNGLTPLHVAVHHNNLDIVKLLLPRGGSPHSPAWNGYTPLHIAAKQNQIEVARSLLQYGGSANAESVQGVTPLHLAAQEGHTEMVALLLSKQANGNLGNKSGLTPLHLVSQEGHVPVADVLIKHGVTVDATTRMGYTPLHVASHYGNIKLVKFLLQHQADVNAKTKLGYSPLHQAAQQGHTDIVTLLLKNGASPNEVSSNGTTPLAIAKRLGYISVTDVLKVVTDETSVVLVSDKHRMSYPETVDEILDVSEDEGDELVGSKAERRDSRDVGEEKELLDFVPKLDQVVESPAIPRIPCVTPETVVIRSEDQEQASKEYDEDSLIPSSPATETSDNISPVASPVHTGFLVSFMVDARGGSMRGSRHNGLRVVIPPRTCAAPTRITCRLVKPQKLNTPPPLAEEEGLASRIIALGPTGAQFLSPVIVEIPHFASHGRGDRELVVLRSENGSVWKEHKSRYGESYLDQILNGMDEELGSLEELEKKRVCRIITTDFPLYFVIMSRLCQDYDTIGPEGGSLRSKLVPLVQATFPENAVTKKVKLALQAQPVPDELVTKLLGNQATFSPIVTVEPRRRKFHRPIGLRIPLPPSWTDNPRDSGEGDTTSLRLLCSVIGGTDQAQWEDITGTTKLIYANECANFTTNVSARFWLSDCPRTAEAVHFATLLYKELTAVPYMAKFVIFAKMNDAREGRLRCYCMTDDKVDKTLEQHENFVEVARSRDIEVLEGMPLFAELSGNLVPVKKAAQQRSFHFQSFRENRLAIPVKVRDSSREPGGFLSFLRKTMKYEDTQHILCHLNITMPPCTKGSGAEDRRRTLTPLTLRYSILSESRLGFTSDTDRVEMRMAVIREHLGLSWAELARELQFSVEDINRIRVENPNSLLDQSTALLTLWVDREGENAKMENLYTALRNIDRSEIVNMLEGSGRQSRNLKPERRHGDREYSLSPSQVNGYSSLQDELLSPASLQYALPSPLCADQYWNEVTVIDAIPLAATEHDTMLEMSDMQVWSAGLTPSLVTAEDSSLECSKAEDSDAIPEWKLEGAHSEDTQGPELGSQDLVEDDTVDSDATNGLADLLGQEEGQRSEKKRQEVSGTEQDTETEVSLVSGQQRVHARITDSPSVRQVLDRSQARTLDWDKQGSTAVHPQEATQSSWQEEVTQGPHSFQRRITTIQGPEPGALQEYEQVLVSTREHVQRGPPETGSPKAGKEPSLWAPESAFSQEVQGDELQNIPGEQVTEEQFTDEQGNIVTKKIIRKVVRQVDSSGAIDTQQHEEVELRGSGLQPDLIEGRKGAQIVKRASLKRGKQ
# UniProt P70375: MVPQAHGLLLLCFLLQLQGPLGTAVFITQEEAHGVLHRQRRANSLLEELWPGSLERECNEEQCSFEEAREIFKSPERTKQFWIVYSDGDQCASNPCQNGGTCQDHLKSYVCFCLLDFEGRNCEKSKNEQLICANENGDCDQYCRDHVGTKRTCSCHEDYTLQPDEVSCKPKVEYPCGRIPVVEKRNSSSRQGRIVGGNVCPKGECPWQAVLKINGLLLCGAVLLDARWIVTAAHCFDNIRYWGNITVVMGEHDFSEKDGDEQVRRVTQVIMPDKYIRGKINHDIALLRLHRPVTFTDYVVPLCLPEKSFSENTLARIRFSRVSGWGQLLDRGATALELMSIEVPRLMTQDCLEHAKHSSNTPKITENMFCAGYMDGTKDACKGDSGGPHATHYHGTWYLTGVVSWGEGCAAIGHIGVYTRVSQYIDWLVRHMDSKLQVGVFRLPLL
# UniProt P70434: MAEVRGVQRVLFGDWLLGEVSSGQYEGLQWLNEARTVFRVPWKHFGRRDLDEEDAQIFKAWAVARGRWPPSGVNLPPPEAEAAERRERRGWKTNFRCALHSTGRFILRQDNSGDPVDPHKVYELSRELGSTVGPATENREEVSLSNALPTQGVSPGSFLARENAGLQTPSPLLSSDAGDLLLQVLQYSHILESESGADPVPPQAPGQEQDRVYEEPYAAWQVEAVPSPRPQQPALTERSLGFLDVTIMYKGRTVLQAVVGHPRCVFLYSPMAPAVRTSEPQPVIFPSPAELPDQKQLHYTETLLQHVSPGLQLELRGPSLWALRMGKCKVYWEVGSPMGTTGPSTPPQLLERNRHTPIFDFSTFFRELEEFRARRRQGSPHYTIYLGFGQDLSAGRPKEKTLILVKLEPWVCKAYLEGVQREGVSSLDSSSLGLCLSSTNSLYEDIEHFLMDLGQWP
# UniProt P70445: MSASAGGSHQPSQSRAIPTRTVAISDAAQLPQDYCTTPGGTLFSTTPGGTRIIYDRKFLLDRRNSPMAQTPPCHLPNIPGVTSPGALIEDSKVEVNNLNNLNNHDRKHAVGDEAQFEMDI
# UniProt Q01063: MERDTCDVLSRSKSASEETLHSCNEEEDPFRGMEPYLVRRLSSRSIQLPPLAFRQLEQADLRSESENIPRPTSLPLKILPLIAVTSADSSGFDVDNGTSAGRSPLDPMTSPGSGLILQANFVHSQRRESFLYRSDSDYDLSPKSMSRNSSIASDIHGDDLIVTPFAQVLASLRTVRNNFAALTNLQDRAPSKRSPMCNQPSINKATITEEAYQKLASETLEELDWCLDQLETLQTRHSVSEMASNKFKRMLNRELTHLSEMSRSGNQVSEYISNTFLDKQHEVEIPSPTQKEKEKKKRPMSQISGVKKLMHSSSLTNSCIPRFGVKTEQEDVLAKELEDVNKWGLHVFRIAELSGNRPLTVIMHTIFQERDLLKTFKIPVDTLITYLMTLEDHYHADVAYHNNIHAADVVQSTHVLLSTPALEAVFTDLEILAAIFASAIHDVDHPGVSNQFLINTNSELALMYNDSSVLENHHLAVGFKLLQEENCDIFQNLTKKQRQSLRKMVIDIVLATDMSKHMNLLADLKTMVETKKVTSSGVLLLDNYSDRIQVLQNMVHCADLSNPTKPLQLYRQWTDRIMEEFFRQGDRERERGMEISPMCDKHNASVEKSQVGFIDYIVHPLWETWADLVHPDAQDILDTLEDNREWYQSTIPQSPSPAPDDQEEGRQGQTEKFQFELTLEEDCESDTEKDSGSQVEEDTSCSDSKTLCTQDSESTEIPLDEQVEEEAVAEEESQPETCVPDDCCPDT
# UniProt P97717, whole entry: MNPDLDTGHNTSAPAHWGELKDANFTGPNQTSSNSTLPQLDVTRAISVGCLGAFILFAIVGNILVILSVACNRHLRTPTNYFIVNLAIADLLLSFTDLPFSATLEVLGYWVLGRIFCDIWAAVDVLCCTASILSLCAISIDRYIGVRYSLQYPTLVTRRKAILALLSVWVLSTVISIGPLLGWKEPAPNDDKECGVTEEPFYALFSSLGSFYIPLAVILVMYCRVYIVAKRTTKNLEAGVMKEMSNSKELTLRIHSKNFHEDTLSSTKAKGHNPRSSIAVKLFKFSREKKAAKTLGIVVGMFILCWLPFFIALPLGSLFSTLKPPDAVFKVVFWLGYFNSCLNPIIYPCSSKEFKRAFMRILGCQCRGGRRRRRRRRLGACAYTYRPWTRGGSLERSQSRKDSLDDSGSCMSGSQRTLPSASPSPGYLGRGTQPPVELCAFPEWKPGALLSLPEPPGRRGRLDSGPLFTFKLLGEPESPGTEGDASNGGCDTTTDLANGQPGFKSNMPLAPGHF
# UniProt P97785: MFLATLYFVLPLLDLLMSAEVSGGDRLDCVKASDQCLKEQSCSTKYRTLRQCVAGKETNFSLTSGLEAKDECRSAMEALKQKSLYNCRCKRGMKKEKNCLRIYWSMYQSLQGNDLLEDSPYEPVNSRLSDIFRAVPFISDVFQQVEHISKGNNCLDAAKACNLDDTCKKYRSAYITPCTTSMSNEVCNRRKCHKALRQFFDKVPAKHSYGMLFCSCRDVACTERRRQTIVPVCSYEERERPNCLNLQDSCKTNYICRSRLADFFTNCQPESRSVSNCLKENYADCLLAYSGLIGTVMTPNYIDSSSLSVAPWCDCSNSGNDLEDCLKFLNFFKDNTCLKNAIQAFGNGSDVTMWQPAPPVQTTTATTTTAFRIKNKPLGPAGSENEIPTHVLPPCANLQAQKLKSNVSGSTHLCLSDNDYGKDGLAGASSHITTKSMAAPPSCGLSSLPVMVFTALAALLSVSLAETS
# UniProt P80318: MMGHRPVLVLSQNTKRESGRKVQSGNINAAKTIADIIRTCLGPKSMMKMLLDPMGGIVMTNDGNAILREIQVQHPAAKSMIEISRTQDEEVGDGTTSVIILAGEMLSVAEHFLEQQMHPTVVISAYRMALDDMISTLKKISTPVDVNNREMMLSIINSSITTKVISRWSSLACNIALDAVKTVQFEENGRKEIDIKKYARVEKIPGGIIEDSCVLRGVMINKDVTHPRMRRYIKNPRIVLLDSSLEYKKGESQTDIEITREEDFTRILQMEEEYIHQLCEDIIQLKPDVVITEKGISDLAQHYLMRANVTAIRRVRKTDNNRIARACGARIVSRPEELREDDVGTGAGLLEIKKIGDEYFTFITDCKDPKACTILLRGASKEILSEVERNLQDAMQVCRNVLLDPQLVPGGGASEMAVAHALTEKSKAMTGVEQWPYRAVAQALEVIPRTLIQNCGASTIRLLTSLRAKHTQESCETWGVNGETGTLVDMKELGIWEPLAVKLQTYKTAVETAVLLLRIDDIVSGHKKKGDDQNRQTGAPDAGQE
# UniProt P97765: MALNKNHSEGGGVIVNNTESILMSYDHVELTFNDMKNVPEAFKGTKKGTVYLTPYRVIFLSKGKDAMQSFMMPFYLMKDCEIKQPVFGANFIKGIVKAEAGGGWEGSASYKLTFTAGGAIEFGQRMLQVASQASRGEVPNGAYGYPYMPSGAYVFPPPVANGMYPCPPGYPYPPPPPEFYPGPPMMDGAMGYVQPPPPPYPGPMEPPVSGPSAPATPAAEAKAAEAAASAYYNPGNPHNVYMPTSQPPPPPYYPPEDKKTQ
# The list shows a part of the results. Small differences around the control level are noise.
# Compound: CN[C@@H]1C[C@H]2O[C@@](C)([C@@H]1OC)n1c3ccccc3c3c4c(c5c6ccccc6n2c5c31)C(=O)NC4 [staurosporine]
# Assay: log2 fold change of tryptic peptide abundance, ligand vs vehicle (limited proteolysis) (log2 ratio); higher = more trypsin-susceptible (destabilized)
# Details: ligand concentration: 20 uM; sample: mouse liver crude lysate; replicate design: treated separately
row,Target,log2 fold change
1,"UniProt P97315 (peptide sequence: HEEAPGHRPTTNPNASK, peptide start residue: 92)",0.187
2,"UniProt P83741 (peptide sequence: FQVSVTMDDAQKER, peptide start residue: 1855)",-0.355
3,"UniProt P97465 (peptide sequence: DAWWCQAR, peptide start residue: 384)",-0.335
4,"UniProt P97762 (peptide sequence: HDAQQLQQLK, peptide start residue: 29)",-0.245
5,"UniProt P70324 (peptide sequence: EGPVATKVDEAR, peptide start residue: 460)",-0.542
6,"UniProt P70122 (peptide sequence: FILPVNEGKK, peptide start residue: 176)",0.348
7,"UniProt P63154 (peptide sequence: FVLVHPAVK, peptide start residue: 208)",0.499
8,"UniProt Q02357 (peptide sequence: LLLENGASPNLATTAGHTPLHTAAR, peptide start residue: 484)",0.53
9,"UniProt P97501 (peptide sequence: NAILTQWDR, peptide start residue: 483)",-0.205
10,"UniProt P70326 (peptide sequence: RMFPSYKVK, peptide start residue: 100)",0.155
11,"UniProt P70210 (peptide sequence: AMNLDQVSK, peptide start residue: 111)",0.241
12,"UniProt P81122 (peptide sequence: ALTDLVSEGR, peptide start residue: 138)",0.278
13,"UniProt P70380 (peptide sequence: LIIYMYK, peptide start residue: 81)",-0.0658
14,"UniProt P70375 (peptide sequence: LMTQDCLEHAK, peptide start residue: 346)",-0.158
15,"UniProt P70434 (peptide sequence: QLHYTETLLQHVSPGLQLELR, peptide start residue: 296)",-0.239
16,"UniProt P70445 (peptide sequence: KFLLDRR, peptide start residue: 57)",0.286
17,"UniProt Q01063 (peptide sequence: SPMCNQPSINK, peptide start residue: 194)",-0.482
18,"UniProt P97302 (peptide sequence: FSFSEQK, peptide start residue: 157)",0.223

row,Target,log2 fold change
1,"UniProt P97434 (peptide sequence: FFILYEHGLLR, peptide start residue: 73)",-0.757
2,"UniProt P97772 (peptide sequence: KLLDFLIK, peptide start residue: 449)",0.829
3,"UniProt P97412 (peptide sequence: ISYPELTLK, peptide start residue: 1026)",0.332
4,"UniProt P97305 (peptide sequence: PASGPSSRPTSPCGK, peptide start residue: 259)",0.421
5,"UniProt Q00897 (peptide sequence: SDAQIHIPR, peptide start residue: 300)",0.196
6,"UniProt P97717 (peptide sequence: SNMPLAPGHF, peptide start residue: 505)",-0.188
7,"UniProt P97785 (peptide sequence: ASDQCLKEQSCSTK, peptide start residue: 32)",0.444
8,"UniProt P70362 (peptide sequence: FIAFSGEGQSLRK, peptide start residue: 290)",-0.132
9,"UniProt P97478 (peptide sequence: VDHAGEYGANR, peptide start residue: 55)",-0.193
10,"UniProt P97290 (peptide sequence: DFACVHQALK, peptide start residue: 207)",-0.543
11,"UniProt P80318 (peptide sequence: IDDIVSGHK, peptide start residue: 519)",-0.31
12,"UniProt P97765 (peptide sequence: NVPEAFKGTK, peptide start residue: 37)",-0.547
13,"UniProt Q02395 (peptide sequence: SWPAAIPHLR, peptide start residue: 488)",0.432
14,"UniProt P97873 (peptide sequence: EVAVGDSTGMAR, peptide start residue: 130)",0.594
15,"UniProt P70257 (peptide sequence: KPPCCVLSNPDQK, peptide start residue: 122)",-0.548
16,"UniProt P97794 (peptide sequence: SELSHQNSLR, peptide start residue: 372)",0.482
17,"UniProt P97855 (peptide sequence: INIPPQRGPRPIR, peptide start residue: 306)",-0.595
18,"UniProt P97351 (peptide sequence: KVVDPFSK, peptide start residue: 20)",0.144

# Not a retest: entries from further up.
row,Target,log2 fold change
17,"UniProt P97855 (peptide sequence: INIPPQRGPRPIR, peptide start residue: 306)",-0.595
18,"UniProt P97351 (peptide sequence: KVVDPFSK, peptide start residue: 20)",0.144
